The M2OR odorant receptor database
Numbering of substitutions follows the chain as printed. Only a part is listed here, and it is no random draw. Calls are pooled over several reports, among them a noisy single-well screen. This is one part of the list.

Chains of the proteins cited; added tags and fusions are not shown. A line that says so, or that is headed by a name, gives the form on record, which may keep a tag or linker.
OR2J2, as listed by the source: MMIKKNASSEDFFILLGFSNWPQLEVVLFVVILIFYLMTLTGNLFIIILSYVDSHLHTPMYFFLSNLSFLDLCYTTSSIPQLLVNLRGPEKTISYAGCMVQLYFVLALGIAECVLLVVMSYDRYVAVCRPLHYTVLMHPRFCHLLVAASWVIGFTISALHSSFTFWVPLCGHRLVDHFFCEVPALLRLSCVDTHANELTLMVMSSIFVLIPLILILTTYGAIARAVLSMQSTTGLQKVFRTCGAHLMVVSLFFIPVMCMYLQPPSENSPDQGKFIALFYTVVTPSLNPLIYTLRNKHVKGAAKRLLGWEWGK

Legend:
Details in all cases: stereoisomer not certain
OR2G3 (Homo sapiens) = molecular target: T1, OR2G3 (Homo sapiens) (UniProt Q8NGZ4)
T1 sequence (whole entry): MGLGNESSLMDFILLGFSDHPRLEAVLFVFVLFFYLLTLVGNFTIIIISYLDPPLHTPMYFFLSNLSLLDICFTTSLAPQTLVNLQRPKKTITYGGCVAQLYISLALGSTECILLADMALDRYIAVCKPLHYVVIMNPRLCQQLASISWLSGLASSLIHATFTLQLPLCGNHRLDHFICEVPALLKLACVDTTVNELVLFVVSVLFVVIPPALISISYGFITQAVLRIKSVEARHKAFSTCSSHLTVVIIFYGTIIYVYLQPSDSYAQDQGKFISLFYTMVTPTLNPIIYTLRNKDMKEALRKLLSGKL
Outline: (§1)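 Whether a receptor–molecule pair is responsive (active) rests on the original authors' judgment that its measured signal was statistically different from baseline. Pairs without that judgment are non-responsive (inactive). Sources used varied assay methods, commonly transient luciferase assays in mammalian cell lines.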

OR2G3 = test system: T2, OR2G3
T2 sequence (whole entry): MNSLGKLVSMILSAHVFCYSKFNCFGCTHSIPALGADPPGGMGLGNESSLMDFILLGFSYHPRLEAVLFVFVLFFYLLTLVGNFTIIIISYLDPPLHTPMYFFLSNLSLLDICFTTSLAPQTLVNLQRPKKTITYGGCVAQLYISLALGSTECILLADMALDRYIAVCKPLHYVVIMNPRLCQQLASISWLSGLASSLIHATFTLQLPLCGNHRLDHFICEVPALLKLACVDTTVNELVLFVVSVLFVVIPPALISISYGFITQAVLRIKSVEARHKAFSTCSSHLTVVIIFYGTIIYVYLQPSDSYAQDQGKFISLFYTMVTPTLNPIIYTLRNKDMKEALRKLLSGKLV
Outline: as §1

OR2G6 (Homo sapiens) = molecular target: T3, OR2G6 (Homo sapiens) (UniProt Q5TZ20)
T3 sequence (whole entry): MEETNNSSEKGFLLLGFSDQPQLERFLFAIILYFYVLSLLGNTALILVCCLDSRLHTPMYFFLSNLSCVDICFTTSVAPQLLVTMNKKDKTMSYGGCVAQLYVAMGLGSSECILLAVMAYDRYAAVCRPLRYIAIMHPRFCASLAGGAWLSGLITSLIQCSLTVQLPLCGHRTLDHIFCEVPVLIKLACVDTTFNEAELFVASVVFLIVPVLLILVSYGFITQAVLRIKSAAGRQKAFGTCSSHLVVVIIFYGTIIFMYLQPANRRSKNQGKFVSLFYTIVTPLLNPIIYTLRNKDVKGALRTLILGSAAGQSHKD
Outline: as §1

OR2H1 (Homo sapiens) = molecular target: T4, OR2H1 (Homo sapiens) (UniProt Q9GZK4)
T4 sequence (whole entry): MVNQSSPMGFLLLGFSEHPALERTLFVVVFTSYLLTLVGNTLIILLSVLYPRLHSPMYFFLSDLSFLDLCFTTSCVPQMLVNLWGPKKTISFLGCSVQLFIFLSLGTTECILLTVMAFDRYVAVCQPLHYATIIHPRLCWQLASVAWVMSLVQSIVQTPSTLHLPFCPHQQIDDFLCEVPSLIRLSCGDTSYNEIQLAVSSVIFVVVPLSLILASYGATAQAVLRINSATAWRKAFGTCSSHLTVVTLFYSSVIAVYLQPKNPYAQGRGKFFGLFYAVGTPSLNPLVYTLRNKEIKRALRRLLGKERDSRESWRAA
Outline: as §1

OR2H2 [1] = test system: T5, OR2H2
T5 sequence (whole entry): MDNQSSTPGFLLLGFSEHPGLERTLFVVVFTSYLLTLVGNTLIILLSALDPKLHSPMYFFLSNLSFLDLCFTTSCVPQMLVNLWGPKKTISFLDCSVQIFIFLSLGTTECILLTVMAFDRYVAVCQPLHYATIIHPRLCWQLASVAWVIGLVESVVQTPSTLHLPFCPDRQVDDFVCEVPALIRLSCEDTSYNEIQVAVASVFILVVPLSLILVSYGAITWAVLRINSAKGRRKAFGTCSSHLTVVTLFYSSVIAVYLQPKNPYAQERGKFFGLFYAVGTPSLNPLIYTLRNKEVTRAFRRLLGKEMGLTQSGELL
Outline: as §1

OR2H2 [2] = test system: T6, OR2H2; remark: listed apart in the source
T6 sequence (whole entry): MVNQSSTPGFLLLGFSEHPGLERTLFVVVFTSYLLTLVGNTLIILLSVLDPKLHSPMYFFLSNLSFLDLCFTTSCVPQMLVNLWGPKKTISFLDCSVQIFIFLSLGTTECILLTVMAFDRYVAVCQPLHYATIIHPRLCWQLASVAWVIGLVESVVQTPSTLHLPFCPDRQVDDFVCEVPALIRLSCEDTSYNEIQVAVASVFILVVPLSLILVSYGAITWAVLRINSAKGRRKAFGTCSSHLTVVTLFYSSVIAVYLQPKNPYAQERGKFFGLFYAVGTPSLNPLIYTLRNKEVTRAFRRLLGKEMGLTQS
Outline: as §1

OR2J1 = test system: T7, OR2J1
T7 sequence (whole entry): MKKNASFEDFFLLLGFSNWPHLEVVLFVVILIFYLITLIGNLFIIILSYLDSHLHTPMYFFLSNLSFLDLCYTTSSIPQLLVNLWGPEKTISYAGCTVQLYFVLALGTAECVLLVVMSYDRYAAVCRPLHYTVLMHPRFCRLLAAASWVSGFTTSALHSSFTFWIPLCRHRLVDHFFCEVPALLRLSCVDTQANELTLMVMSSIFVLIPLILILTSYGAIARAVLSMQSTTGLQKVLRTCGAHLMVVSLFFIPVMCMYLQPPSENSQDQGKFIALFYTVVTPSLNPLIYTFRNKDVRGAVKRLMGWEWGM
Outline: as §1

OR2J2 (Homo sapiens) = molecular target: T8, OR2J2 (Homo sapiens) (UniProt O76002)
T8 sequence (whole entry): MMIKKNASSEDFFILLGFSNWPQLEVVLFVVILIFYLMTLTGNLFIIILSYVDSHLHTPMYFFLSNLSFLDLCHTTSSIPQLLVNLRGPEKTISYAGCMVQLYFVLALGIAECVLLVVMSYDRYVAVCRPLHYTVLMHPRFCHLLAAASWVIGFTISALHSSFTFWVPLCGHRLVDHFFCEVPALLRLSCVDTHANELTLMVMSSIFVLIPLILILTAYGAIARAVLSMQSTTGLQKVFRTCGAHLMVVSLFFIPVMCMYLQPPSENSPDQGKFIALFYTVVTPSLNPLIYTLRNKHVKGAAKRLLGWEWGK
Outline: as §1

OR2J2 [3] = test system: T9, OR2J2
T9 sequence (whole entry): T8 sequence (whole entry) with A218T
Outline: as §1

OR2J2 [4] = test system: T10, OR2J2; remark: listed apart in the source
T10 sequence (whole entry): T8 sequence (whole entry) with H74Y, A146V, A218T
Outline: as §1

OR2J2 [5] = test system: T11, OR2J2; remark: listed apart in the source
T11 sequence (whole entry): T8 sequence (whole entry) with H74Y, A111T, A146V
Outline: as §1

OR2J3 (Homo sapiens) = molecular target: T12, OR2J3 (Homo sapiens) (UniProt O76001)
T12 sequence (whole entry): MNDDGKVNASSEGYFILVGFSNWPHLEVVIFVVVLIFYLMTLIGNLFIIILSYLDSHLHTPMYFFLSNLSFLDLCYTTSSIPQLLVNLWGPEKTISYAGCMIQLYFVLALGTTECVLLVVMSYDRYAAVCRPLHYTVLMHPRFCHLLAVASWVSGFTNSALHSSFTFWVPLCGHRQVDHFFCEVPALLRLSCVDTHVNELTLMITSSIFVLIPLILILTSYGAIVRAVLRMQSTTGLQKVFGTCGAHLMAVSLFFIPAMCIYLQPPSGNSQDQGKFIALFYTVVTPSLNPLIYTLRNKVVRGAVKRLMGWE
Outline: as §1

OR2K2 (Homo sapiens) = molecular target: T13, OR2K2 (Homo sapiens) (UniProt Q8NGT1)
T13 sequence (whole entry): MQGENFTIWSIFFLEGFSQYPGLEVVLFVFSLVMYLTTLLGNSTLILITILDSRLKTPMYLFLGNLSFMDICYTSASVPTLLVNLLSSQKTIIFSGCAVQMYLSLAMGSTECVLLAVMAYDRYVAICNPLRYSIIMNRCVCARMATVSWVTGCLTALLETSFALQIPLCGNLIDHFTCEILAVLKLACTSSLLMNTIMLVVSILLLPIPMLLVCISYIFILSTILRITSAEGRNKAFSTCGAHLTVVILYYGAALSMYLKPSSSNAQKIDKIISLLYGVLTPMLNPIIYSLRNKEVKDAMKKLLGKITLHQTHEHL
Outline: as §1

OR2L13 (Homo sapiens) = molecular target: T14, OR2L13 (Homo sapiens) (UniProt Q8N349)
T14 sequence (whole entry): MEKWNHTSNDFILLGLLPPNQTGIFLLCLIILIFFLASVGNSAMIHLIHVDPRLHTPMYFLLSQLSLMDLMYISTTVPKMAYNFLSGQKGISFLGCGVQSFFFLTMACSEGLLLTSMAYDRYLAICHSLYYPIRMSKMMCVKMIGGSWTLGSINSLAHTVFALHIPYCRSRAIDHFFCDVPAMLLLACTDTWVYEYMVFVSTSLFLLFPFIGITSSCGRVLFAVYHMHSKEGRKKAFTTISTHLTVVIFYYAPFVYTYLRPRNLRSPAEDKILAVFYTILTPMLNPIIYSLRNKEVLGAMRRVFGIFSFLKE
Outline: as §1

OR2L2 (Homo sapiens) = molecular target: T15, OR2L2 (Homo sapiens) (UniProt Q8NH16)
T15 sequence (whole entry): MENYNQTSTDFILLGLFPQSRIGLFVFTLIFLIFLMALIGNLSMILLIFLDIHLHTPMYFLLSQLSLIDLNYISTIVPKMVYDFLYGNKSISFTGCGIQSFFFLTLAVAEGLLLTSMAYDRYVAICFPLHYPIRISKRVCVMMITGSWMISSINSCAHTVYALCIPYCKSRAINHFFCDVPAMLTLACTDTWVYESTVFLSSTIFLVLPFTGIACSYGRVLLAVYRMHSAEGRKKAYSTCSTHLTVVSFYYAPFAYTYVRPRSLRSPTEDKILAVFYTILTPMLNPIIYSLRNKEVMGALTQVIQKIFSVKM
Outline: as §1

OR2L3 = test system: T16, OR2L3
T16 sequence (whole entry): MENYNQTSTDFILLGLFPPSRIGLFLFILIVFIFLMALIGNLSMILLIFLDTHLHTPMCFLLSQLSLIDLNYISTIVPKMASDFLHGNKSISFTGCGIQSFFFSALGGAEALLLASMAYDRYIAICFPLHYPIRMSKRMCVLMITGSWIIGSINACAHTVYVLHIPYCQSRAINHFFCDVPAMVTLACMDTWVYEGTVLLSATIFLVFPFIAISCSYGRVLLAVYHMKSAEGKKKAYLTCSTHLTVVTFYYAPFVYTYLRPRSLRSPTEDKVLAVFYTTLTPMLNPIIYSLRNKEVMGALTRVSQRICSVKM
Outline: as §1

OR2L5 (Homo sapiens) = molecular target: T17, OR2L5 (Homo sapiens) (UniProt Q8NG80)
T17 sequence (whole entry): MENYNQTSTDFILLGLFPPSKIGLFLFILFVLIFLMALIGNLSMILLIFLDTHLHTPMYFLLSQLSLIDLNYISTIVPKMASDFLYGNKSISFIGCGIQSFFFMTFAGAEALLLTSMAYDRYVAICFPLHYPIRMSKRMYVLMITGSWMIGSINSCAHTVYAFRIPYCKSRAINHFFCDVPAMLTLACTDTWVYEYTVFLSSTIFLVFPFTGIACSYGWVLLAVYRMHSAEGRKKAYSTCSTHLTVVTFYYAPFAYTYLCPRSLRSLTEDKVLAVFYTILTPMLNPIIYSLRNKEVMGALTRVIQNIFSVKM
Outline: as §1

OR2L8 = test system: T18, OR2L8
T18 sequence (whole entry): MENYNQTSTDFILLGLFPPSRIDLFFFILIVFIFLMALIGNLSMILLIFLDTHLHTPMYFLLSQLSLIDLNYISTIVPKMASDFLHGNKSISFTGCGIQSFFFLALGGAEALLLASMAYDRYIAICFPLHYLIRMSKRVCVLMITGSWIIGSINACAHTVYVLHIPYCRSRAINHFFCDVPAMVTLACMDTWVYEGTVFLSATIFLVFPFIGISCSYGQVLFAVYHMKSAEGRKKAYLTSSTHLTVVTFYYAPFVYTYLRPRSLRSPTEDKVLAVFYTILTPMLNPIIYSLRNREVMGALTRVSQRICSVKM
Outline: as §1

OR2M2 = test system: T19, OR2M2
T19 sequence (whole entry): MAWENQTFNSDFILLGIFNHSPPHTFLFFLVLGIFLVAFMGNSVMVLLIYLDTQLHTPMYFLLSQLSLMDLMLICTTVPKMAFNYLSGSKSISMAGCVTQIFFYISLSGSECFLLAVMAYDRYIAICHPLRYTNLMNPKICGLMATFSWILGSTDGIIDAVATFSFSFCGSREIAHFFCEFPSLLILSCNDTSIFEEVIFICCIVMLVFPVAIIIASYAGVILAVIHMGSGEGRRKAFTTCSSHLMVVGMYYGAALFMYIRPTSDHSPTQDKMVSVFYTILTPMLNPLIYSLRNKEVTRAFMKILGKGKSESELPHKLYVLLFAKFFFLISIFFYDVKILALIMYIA
Outline: as §1

OR2M3 (Homo sapiens) = molecular target: T20, OR2M3 (Homo sapiens) (UniProt Q8NG83)
T20 sequence (whole entry): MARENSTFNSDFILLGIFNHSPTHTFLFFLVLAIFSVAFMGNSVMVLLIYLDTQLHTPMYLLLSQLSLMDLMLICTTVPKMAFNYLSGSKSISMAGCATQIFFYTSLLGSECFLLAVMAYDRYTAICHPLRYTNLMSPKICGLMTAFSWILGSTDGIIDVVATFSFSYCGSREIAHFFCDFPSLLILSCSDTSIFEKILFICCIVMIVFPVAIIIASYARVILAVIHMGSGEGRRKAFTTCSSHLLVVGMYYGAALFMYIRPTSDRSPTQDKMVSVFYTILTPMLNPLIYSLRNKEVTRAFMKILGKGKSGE
Outline: as §1

Measured: odorant receptor agonist call;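 note: active if original authors judged signal statistically different from baseline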

CCCCOC(C)=O
inactive: all assays above

CS
inactive: all assays above
